Record: PubChem BioAssay AID720505 (Drosophila RNAi Screening Center, 2013)
In all, the deposit lists about 20,000 reagents; this is an unselected part of those with a known target gene and a result. In the full data, about 2,100 (10%) were called active. 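Raw plate signals without normalisation; calls rest on control-based scores that were not deposited; replicate 2 separates called from uncalled poorly.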 A plus sign joins genes that one reagent is predicted to hit. No sequences are given here. Not given: the amount of reagent, the time to read-out.

- Screen: 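Knock-downs that reduce calcium influx once internal stores are emptied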 (primary screen)
- System: Drosophila S2R+ cells
- Reagent: long dsRNA against Drosophila genes
- Challenge: thapsigargin (2 µM) in calcium-free buffer to empty internal stores, then 2 mM calcium added back
- Read-out: 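Fluo-4 signal in 384-well plates read on a FLIPR after thapsigargin (2 µM, calcium-free) store depletion and 2 mM calcium add-back; unnormalised mean endpoint per well; screen run twice, selected wells retested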
- Scale: calcium signal: higher = more calcium entry after store depletion
- Hit rule: 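Knock-downs counted as hits when calcium entry dropped relative to STIM1 positive and Rho1 negative controls present on each plate; roughly 1500 genes called, with reductions of differing size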
- Meaning of the calls: active = called as lowering calcium entry; inactive = not called

Target gene	DRSC id	calcium signal, replicate 1	calcium signal, replicate 2	activity call
Gr47a (GeneID 36094)	DRSC06221	139	173	inactive
CG1317 (GeneID 38300)	DRSC08305	130	93.8	inactive
CG7168 (GeneID 42184)	DRSC16208	172	196	inactive
CG43658 (GeneID 32729)	DRSC19455	65.7	124	active
CG43658 (GeneID 32729)	DRSC20111	93.9	133	inactive
CG33268 (GeneID 2768979)	DRSC10143	123	110	inactive
CG42724 (GeneID 40785)	DRSC12567	126	170	inactive
CG42724 (GeneID 40785)	DRSC22275	88.8	188	inactive
CG8569 (GeneID 36376)	DRSC07214	139	145	inactive
mxc (GeneID 31869)	DRSC17819	78.8	98.2	inactive
CG34205 (GeneID 37526)	DRSC04149	187	90.2	inactive
CG34205 (GeneID 37526)	DRSC22823	106	87.3	inactive
Tsp42Ep (GeneID 35626)	DRSC06871	215	99.8	inactive
RpL37A (GeneID 44783)	DRSC02899	137	82.2	inactive
Srrm1 (GeneID 39483)	DRSC09835	57.1	87.3	active
CG4151 (GeneID 31465)	DRSC18351	167	141	inactive
CG3650 (GeneID 37974)	DRSC04401	148	165	inactive
AANATL4 (GeneID 37213)	DRSC06774	203	116	inactive
Rab6 (GeneID 34636)	DRSC03404	112	100	inactive
Col4a1 (GeneID 33727)	DRSC03291	121	137	inactive
Zwilch (GeneID 59247)	DRSC15376	212	123	inactive
CG2113 (GeneID 38356)	DRSC08554	88	82.7	inactive
Arl8 (GeneID 40961)	DRSC16334	91.6	149	inactive
CG31221 (GeneID 42325)	DRSC14335	192	158	inactive
CG31221 (GeneID 42325)	DRSC16217	151	134	inactive
baf (GeneID 34095)	DRSC03051	140	146	inactive
CG41099 (GeneID 3355072)	DRSC21049	143	118	inactive
CG41099 (GeneID 3355072)	DRSC21051	125	90.3	inactive
CG8958 (GeneID 32575)	DRSC20134	89.9	140	inactive

Next part (4 carried over from the part before).
Target gene	DRSC id	calcium signal, replicate 1	calcium signal, replicate 2	activity call
baf (GeneID 34095)	DRSC03051	140	146	inactive
CG41099 (GeneID 3355072)	DRSC21049	143	118	inactive
CG41099 (GeneID 3355072)	DRSC21051	125	90.3	inactive
CG8958 (GeneID 32575)	DRSC20134	89.9	140	inactive
Tmtc4 (GeneID 41867)	DRSC15702	113	150	inactive
CG42455 + vnc	DRSC09867	52.2	90.6	active
CG32269 + CG32270	DRSC08195	61.6	105	inactive
udt (GeneID 42809)	DRSC14214	128	158	inactive
Dnai2 (GeneID 39318)	DRSC10575	47.4	60.7	active
Tre1 (GeneID 140439)	DRSC18726	182	127	inactive
SdhBL (GeneID 32887)	DRSC20039	69.8	63	active
CR31700 (GeneID 8673969)	DRSC03682	73.7	5281	inactive
az2 (GeneID 35682)	DRSC07580	184	78.7	inactive
sov (GeneID 31615)	DRSC17930	183	142	inactive
ttv (GeneID 36614)	DRSC07709	158	139	inactive
CG42324 (GeneID 38430)	DRSC08431	110	93	inactive
CG42324 (GeneID 38430)	DRSC08432	88.7	93.5	inactive
mab-21 (GeneID 44127)	DRSC18791	229	89.7	inactive
CG4955 (GeneID 32692)	DRSC19927	130	83.5	inactive
Veneno (GeneID 41000)	DRSC16537	132	147	inactive
tadr (GeneID 35370)	DRSC03177	107	121	inactive
CG9717 (GeneID 43636)	DRSC16543	192	223	inactive
CG31775 + CG42586	DRSC22289	101	203	inactive
CG31775 + CG42586	DRSC23266	106	134	inactive
Ddx56 (GeneID 33118)	DRSC20567	62.7	103	active
CG7692 (GeneID 39934)	DRSC10902	69.1	131	inactive
LanB2 (GeneID 39118)	DRSC11208	87.4	99.1	inactive
ox (GeneID 45401)	DRSC07520	74.2	190	inactive
GAPsec (GeneID 38987)	DRSC10564	190	153	inactive
salt (GeneID 43742)	DRSC15427	84.3	157	inactive
CCT1 (GeneID 42649)	DRSC16877	124	202	inactive
Os-C (GeneID 40942)	DRSC16778	105	136	inactive
Fancd2 (GeneID 2768674)	DRSC15208	187	203	inactive
Fancd2 (GeneID 2768674)	DRSC22763	115	152	inactive
SCAP (GeneID 35529)	DRSC04869	163	228	inactive
SCAP (GeneID 35529)	DRSC04907	144	204	inactive
CG6503 (GeneID 50079)	DRSC16056	275	143	inactive
CG13331 (GeneID 36503)	DRSC06366	157	210	inactive
Ciao1 (GeneID 36655)	DRSC06170	206	197	inactive
CG8500 (GeneID 41203)	DRSC16434	143	77.8	inactive
CG5555 (GeneID 42302)	DRSC15834	111	223	inactive
CG6843 (GeneID 40062)	DRSC10725	84	135	inactive
Akh (GeneID 38495)	DRSC08138	95.6	85.3	inactive
mu2 (GeneID 38257)	DRSC08726	146	101	inactive
mu2 (GeneID 38257)	DRSC21534	149	83.2	inactive
pon (GeneID 31394)	DRSC18823	220	110	inactive
Ugt35C1 (GeneID 53507)	DRSC16080	53.3	167	active
CG30355 (GeneID 246561)	DRSC21958	121	238	inactive
CG3494 (GeneID 37903)	DRSC04375	159	247	inactive
TORIP (GeneID 40158)	DRSC10104	90.6	113	inactive
Cep97 (GeneID 33610)	DRSC00637	129	217	inactive
Mhc (GeneID 35007)	DRSC03367	66	107	active
ckd (GeneID 38402)	DRSC08418	83.7	108	inactive
p24-1 (GeneID 32140)	DRSC19827	93.2	93.3	inactive
GC (GeneID 38194)	DRSC08396	83.6	139	inactive
CG31199 (GeneID 42456)	DRSC15284	171	317	inactive
rt (GeneID 39297)	DRSC11391	108	77.9	inactive
sotv + CG10731	DRSC05930	113	116	inactive
sotv + CG10731	DRSC05997	133	157	inactive
